In patent US9784752B2, “Venlafaxine assay” (Randox Laboratories, Limited, priority 2012, dated 2017):

Test system: polyclonal antibody raised to Immunogen II
Assay: Competitive biochip immunoassay (Evidence Investigator) with Hapten-1 HRP detecting agent
Type: binding, sheep
Settings: concentration causing 50% displacement of signal; competition with Hapten-1 HRP for immobilised polyclonal antibody; 30 minutes at 30° C.
Method: A semi-automated Evidence Investigator analyser (Randox Laboratories Ltd., Crumlin, UK) was used as the platform for a biochip assay for the detection of venlafaxine and O-desmethylvenlafaxine. Immunogen II was administered to adult sheep on a monthly basis to provide target-specific polyclonal antisera. IgG was extracted from the antisera, and the purified antibody was immobilised on a biochip (9 mm×9 mm). The assay is based on competition for binding sites of a polyclonal antibody between Hapten-1HRP detecting agent (Example 10) and venlafaxine and O-desmethylvenlafaxine and potential cross-reactants. The antibody was immobilised and stabilised onto the biochip surface as previously described (Fitzgerald et al., 2005). Assay diluent (155 μL), calibrator/venlafaxine and O-desmethylvenlafaxine or potential cross-reactant (25 μL) followed by Hapten-1 HRP detecting agent (120 μL) were added to the appropriate biochip. The biochips were then incubated for 30 minutes at 30° C. on a thermoshaker set at 370 rpm. The biochips were then subjected to 2 quick wash cycles using the wash buffer provided, followed by 4×2 minute wash cycles. 250 μL of signal (1:1 luminol+peroxide, v/v) was then added to each biochip, and after 2 minutes the biochip carrier was imaged in the Evidence Investigator analyser. […]

Structure (SMILES): CCOC(=O)C1(c2ccccc2)CCN(C)CC1 [Meperidine]
- IC50: >320 ng/mL
